PubChem BioAssay AID248 (DTP/NCI, 2004)
The list does not hold the whole screen: it is rich in T/C values a quarter to a half above the control, in often repeated tests (any T/C) and in doses without a T/C. Further doses and runs are listed elsewhere. T/C is the treated group as % of the vehicle group. Some doses have a count of surviving animals in place of a T/C: the source holds a T/C of zero for them, seemingly a mark for toxic or unscored doses. Some doses without a T/C left all or most animals alive at the check, yet need not have been tolerated: survival well below the control is almost never listed, so the zero probably covers shortened survival too. Counts of survivors are from the toxicity check (mostly the fifth day) where no day follows; animals may have died later. Schedules are NCI's codes, taken here to give the interval after Q, in days (D) or hours (H), and the number of doses after X. Some entries hold several experiments; the results are listed from low to high. Some schedules carry Z or #; the key to these is not given. Some molecules as drawn cover several salts, stereoisomers or complexes of the source; a dose is that of the sample tested. For survival time, this PubChem deposit counts one and a half times the control or more as active, and values a quarter to a half above the control carry no call in these data; other NCI protocols may use other cut-offs. Signs of the kind (2×) give the number of equal values in this list. Some T/C values carry the count of animals alive at the toxicity check (mostly the fifth day); where none is given, no animal had died by that day.

Tested on: L1210 leukemia ip in BDF1 mice, survival T/C
Assay: NCI In Vivo Anticancer Drug Screen. Data for tumor model L1210 Leukemia (intraperitoneal) in B6D2F1 (BDF1) mice
Details: T/C endpoint: mean survival time, higher T/C = longer survival
[1] = dose: 100.0 mg/kg/injection, schedule: Q01DX001 (ip), vehicle: saline with Tween-80
[2] = dose: 200.0 mg/kg/injection, schedule: Q01DX001 (ip), vehicle: saline with Tween-80
[3] = dose: 400.0 mg/kg/injection, schedule: Q01DX001 (ip), vehicle: saline with Tween-80
[4] = dose: 400.0 mg/kg/injection, schedule: Q04DX003 (ip), vehicle: Klucel (hydroxypropylcellulose) (HPC)
[5] = dose: 100.0 mg/kg/injection, schedule: Q01DX009 (ip), vehicle: saline with Tween-80
[6] = dose: 200.0 mg/kg/injection, schedule: Q01DX009 (ip), vehicle: saline with Tween-80
[7] = dose: 400.0 mg/kg/injection, schedule: Q01DX009 (ip), vehicle: saline with Tween-80
[8] = dose: 50.0 mg/kg/injection, schedule: Q01DX001 (ip), vehicle: carboxymethylcellulose (CMC)
[9] = dose: 100.0 mg/kg/injection, schedule: Q01DX001 (ip), vehicle: carboxymethylcellulose (CMC)
[10] = dose: 200.0 mg/kg/injection, schedule: Q01DX001 (ip), vehicle: carboxymethylcellulose (CMC)
[11] = dose: 400.0 mg/kg/injection, schedule: Q01DX001 (ip), vehicle: carboxymethylcellulose (CMC)
[12] = dose: 180.0 mg/kg/injection, schedule: Q01DX009 (ip), vehicle: saline
[13] = dose: 200.0 mg/kg/injection, schedule: Q01DX009 (ip), vehicle: saline

**Q.** With `CCCCCCC[CH2][Sn]([CH2]C)([CH2]C)[O]C(C)=O` as the compound, how does the survivor count [1] read?
**A.** The survivor count was 0 of 6.

**Q.** And the survivor count [2]?
**A.** Its survivor count is 0 of 6.

**Q.** And the survivor count [3]?
**A.** The survivor count was 0 of 6.

**Q.** What does the source list for `CC(=O)OC1=CCC(C(C)(C)C)CC1` (stereo unspecified)?
**A.** survivor count (dose: 50.0 mg/kg/injection, schedule: Q01DX009 (ip), vehicle: Klucel (hydroxypropylcellulose) (HPC)): 6 of 6; survivor count (dose: 100.0 mg/kg/injection, schedule: Q04DX003 (ip), vehicle: Klucel (hydroxypropylcellulose) (HPC)): 4 of 6; survivor count (dose: 200.0 mg/kg/injection, schedule: Q04DX003 (ip), vehicle: Klucel (hydroxypropylcellulose) (HPC)): 0 of 6; survivor count [4]: 0 of 6

**Q.** `Cc1ccc(NC(=O)Oc2ccc(Br)cc2Br)c(Cl)c1` was tested. Which T/C [5] did it give?
**A.** Its T/C is 96, 97 (2×), 101 % of control.

**Q.** What about the survivor count [6] of the same compound?
**A.** The survivor count was 5 of 6 and 3 of 3.

**Q.** And the survivor count [7]?
**A.** Its survivor count is 3 of 3 and 6 of 6.

**Q.** What does the source list for `COC(=O)C(N)Cc1ccc(OC)c(N(CCCl)CCCl)c1` (stereo unspecified)?
**A.** T/C (dose: 0.7 mg/kg/injection, schedule: Q01DX009 (ip), vehicle: saline): 148 % of control; survivor count (dose: 6.6 mg/kg/injection, schedule: Q01DX009 (ip), vehicle: saline): 6 of 6; T/C (dose: 10.0 mg/kg/injection, schedule: Q01DX001 (ip), vehicle: saline): 129 % of control; survivor count (dose: 10.0 mg/kg/injection, schedule: Q01DX009 (ip), vehicle: saline): 3 of 6; survivor count (dose: 12.5 mg/kg/injection, schedule: Q01DX001 (ip), vehicle: carboxymethylcellulose (CMC)): 2 of 6; survivor count (dose: 15.0 mg/kg/injection, schedule: Q01DX001 (ip), vehicle: saline): 4 of 6; survivor count (dose: 20.0 mg/kg/injection, schedule: Q01DX001 (ip), vehicle: saline): 5 of 6; survivor count (dose: 25.0 mg/kg/injection, schedule: Q01DX001 (ip), vehicle: carboxymethylcellulose (CMC)): 0 of 6; survivor count (dose: 30.0 mg/kg/injection, schedule: Q01DX001 (ip), vehicle: saline): 5 of 6; survivor count (dose: 40.0 mg/kg/injection, schedule: Q01DX001 (ip), vehicle: saline): 1 of 6; survivor count [8]: 0 of 6; survivor count (dose: 60.0 mg/kg/injection, schedule: Q01DX001 (ip), vehicle: saline): 0 of 6; survivor count (dose: 75.0 mg/kg/injection, schedule: Q01DX001 (sc), vehicle: saline): 0 of 6; survivor count (dose: 80.0 mg/kg/injection, schedule: Q01DX001 (ip), vehicle: saline): 0 of 6; survivor count [9]: 0 of 6; survivor count (dose: 150.0 mg/kg/injection, schedule: Q01DX001 (sc), vehicle: saline): 0 of 6; survivor count (dose: 160.0 mg/kg/injection, schedule: Q01DX001 (ip), vehicle: saline): 0 of 6; survivor count [10]: 0 of 6; survivor count (dose: 300.0 mg/kg/injection, schedule: Q01DX001 (sc), vehicle: saline): 0 of 6; survivor count [11]: 0 of 6

**Q.** What does the source list for `CC(Cl)CN(CC(C)Cl)c1ccc(S(=O)(=O)Nc2ncccn2)cc1` (stereo unspecified)?
**A.** survivor count (dose: 90.0 mg/kg/injection, schedule: Q01DX009 (ip), vehicle: saline): 0 of 6; T/C (dose: 120.0 mg/kg/injection, schedule: Q01DX009 (ip), vehicle: saline with Tween-80): 129 % of control; T/C (dose: 120.0 mg/kg/injection, schedule: Q01DX009 (ip), vehicle: saline): 127 % of control; T/C (dose: 180.0 mg/kg/injection, schedule: Q01DX009 (ip), vehicle: saline with Tween-80): 126 % of control [4 of 6 alive]; T/C [12]: 106 and 120 % of control; survivor count [12]: 0 of 6 and 3 of 6; survivor count (dose: 270.0 mg/kg/injection, schedule: Q01DX009 (ip), vehicle: other): 2 of 6; survivor count (dose: 270.0 mg/kg/injection, schedule: Q01DX009 (ip), vehicle: saline): 3 of 6; survivor count (dose: 360.0 mg/kg/injection, schedule: Q01DX009 (ip), vehicle: saline): 0 of 6 and 1 of 6

**Q.** Which survivor count (dose: 100.0 mg/kg/injection, schedule: Q01DX001 (ip), vehicle: Klucel (hydroxypropylcellulose) (HPC)) does the source give for `OCc1cccc2c1CCC2` here?
**A.** The survivor count was 3 of 6.

**Q.** And the survivor count (dose: 200.0 mg/kg/injection, schedule: Q01DX001 (ip), vehicle: Klucel (hydroxypropylcellulose) (HPC))?
**A.** Its survivor count is 1 of 6.

**Q.** What about the survivor count (dose: 400.0 mg/kg/injection, schedule: Q01DX001 (ip), vehicle: Klucel (hydroxypropylcellulose) (HPC)) of the same compound?
**A.** Its survivor count is 0 of 6.

**Q.** `O=C(O)c1cc2cc(Cl)ccc2oc1=O` was tested. Which survivor count [11] did it give?
**A.** Its survivor count is 2 of 4.

**Q.** How did the survivor count (dose: 25.0 mg/kg/injection, schedule: Q01DX009 (ip), vehicle: saline with Tween-80) turn out when `C=CC[P+](Cc1ccccc1)(c1ccccc1)c1ccccc1` was run?
**A.** The survivor count was 0 of 3.

**Q.** What about the survivor count (dose: 50.0 mg/kg/injection, schedule: Q01DX009 (ip), vehicle: saline with Tween-80) of the same compound?
**A.** Its survivor count is 0 of 3.

**Q.** What about the survivor count [5] of the same compound?
**A.** The survivor count was 0 of 3.

**Q.** What about the survivor count [6] of the same compound?
**A.** Its survivor count is 0 of 3.

**Q.** Which survivor count (dose: 100.0 mg/kg/injection, schedule: Q01DX Z (ip), vehicle: methylcellulose (MC)) does the source give for `CCc1c(Nc2ccc(C)cc2)[nH]c(N)nc1=S` here?
**A.** Its survivor count is 6 of 6.

**Q.** With `S=C(NCc1ccc(Cl)c(Cl)c1)NCc1ccc(Cl)c(Cl)c1` as the compound, how does the survivor count (dose: 100.0 mg/kg/injection, schedule: Q01DX009 (ip), vehicle: Klucel (hydroxypropylcellulose) (HPC)) read?
**A.** Its survivor count is 0 of 3 and 0 of 6.

**Q.** What about the survivor count (dose: 200.0 mg/kg/injection, schedule: Q01DX009 (ip), vehicle: Klucel (hydroxypropylcellulose) (HPC)) of the same compound?
**A.** Its survivor count is 0 of 6.

**Q.** And the survivor count (dose: 400.0 mg/kg/injection, schedule: Q01DX009 (ip), vehicle: Klucel (hydroxypropylcellulose) (HPC))?
**A.** The survivor count was 0 of 6.

**Q.** Which survivor count [4] does the source give for `CC(=O)Nc1ccc(NC(=O)NCCCl)cc1` here?
**A.** Its survivor count is 6 of 6.

**Q.** What does the source list for `CCCCOC(=O)c1ccc(NC(=O)Nc2cccc(F)c2)cc1`?
**A.** survivor count [6]: 3 of 6; survivor count [7]: 0 of 6

**Q.** Which results are given for `COc1cc(N(CCO)CCO)ccc1NC(=O)c1ccccc1`?
**A.** survivor count [8]: 2 of 4; survivor count [9]: 0 of 6; survivor count [10]: 0 of 6; survivor count [11]: 0 of 6

**Q.** With `C[C@]12C=CC(=O)C=C1CC[C@@H]1[C@@H]2[C@@H](O)C[C@@]2(C)[C@H]1CC[C@]2(O)C(=O)COC(=O)CCC(=O)O` as the compound, how does the survivor count (dose: 1000.0 mg/kg/injection, schedule: Q01DX015 (sc), vehicle: steroid suspending solution) read?
**A.** The survivor count was 0 of 6.

**Q.** `CN(C)N=Nc1ccccc1[N+](=O)[O-]` was tested. Which T/C (dose: 25.0 mg/kg/injection, schedule: Q01DX009 (ip), vehicle: saline) did it give?
**A.** Its T/C is 130 % of control.

**Q.** What about the T/C (dose: 50.0 mg/kg/injection, schedule: Q01DX009 (ip), vehicle: saline) of the same compound?
**A.** Its T/C is 136 % of control.

**Q.** And the T/C (dose: 79.0 mg/kg/injection, schedule: Q01DX009 (ip), vehicle: saline with Tween-80)?
**A.** The T/C was 135 % of control.

**Q.** And the survivor count (dose: 100.0 mg/kg/injection, schedule: Q01DX009 (ip), vehicle: saline)?
**A.** The survivor count was 6 of 6.

**Q.** What about the T/C (dose: 119.0 mg/kg/injection, schedule: Q01DX009 (ip), vehicle: saline with Tween-80) of the same compound?
**A.** Its T/C is 147 % of control [5 of 6 alive].

**Q.** And the T/C (dose: 200.0 mg/kg/injection, schedule: Q01DX001 (ip), vehicle: saline)?
**A.** The T/C was 134 % of control.

**Q.** And the survivor count [13]?
**A.** The survivor count was 1 of 6.

**Q.** And the T/C (dose: 400.0 mg/kg/injection, schedule: Q01DX001 (ip), vehicle: saline)?
**A.** The T/C was 128 % of control.

**Q.** Which results are given for `C#CCOCC(O)C[As](=O)(O)c1ccc(Cl)cc1` (stereo unspecified)?
**A.** survivor count (dose: 25.0 mg/kg/injection, schedule: Q01DX001 (ip), vehicle: saline with Tween-80): 0 of 6; survivor count [1]: 0 of 6; survivor count [2]: 0 of 6; survivor count [3]: 0 of 6

**Q.** For `O=C(c1ccccc1)C(CC[P+](c1ccccc1)(c1ccccc1)c1ccccc1)(OBr)c1ccccc1` (stereo unspecified), which survivor count [1] is on record?
**A.** Its survivor count is 1 of 6.

**Q.** And the survivor count [2]?
**A.** Its survivor count is 0 of 6.

**Q.** And the survivor count [3]?
**A.** Its survivor count is 0 of 6.

**Q.** For `CC(N)c1ccccc1` (stereo unspecified) (tested in a mixture with another compound), which survivor count [13] is on record?
**A.** Its survivor count is 3 of 3.

**Q.** `COc1cc(C=C(C(C)=O)C(C)=O)ccc1O` was tested. Which survivor count (dose: 400.0 mg/kg/injection, schedule: Q04DX003 (ip), vehicle: saline with Tween-80) did it give?
**A.** Its survivor count is 5 of 6.
